In US20120231482A1, “METHOD, KIT OR DIAGNOSTIC FOR THE DETECTION OF REAGENTS WHICH INDUCE ALTERED CONTRACTILITY” (THE JOHNS HOPKINS UNIVERSITY, priority 2009, published 2012):
For at least one compound, name, drawing or mass did not settle the structure. Some results were stated once for a whole list of compounds, not compound by compound.

The chains behind the UniProt entries cited, without tags or fusion partners. Residues count along the entry.
UniProt P02563, whole entry: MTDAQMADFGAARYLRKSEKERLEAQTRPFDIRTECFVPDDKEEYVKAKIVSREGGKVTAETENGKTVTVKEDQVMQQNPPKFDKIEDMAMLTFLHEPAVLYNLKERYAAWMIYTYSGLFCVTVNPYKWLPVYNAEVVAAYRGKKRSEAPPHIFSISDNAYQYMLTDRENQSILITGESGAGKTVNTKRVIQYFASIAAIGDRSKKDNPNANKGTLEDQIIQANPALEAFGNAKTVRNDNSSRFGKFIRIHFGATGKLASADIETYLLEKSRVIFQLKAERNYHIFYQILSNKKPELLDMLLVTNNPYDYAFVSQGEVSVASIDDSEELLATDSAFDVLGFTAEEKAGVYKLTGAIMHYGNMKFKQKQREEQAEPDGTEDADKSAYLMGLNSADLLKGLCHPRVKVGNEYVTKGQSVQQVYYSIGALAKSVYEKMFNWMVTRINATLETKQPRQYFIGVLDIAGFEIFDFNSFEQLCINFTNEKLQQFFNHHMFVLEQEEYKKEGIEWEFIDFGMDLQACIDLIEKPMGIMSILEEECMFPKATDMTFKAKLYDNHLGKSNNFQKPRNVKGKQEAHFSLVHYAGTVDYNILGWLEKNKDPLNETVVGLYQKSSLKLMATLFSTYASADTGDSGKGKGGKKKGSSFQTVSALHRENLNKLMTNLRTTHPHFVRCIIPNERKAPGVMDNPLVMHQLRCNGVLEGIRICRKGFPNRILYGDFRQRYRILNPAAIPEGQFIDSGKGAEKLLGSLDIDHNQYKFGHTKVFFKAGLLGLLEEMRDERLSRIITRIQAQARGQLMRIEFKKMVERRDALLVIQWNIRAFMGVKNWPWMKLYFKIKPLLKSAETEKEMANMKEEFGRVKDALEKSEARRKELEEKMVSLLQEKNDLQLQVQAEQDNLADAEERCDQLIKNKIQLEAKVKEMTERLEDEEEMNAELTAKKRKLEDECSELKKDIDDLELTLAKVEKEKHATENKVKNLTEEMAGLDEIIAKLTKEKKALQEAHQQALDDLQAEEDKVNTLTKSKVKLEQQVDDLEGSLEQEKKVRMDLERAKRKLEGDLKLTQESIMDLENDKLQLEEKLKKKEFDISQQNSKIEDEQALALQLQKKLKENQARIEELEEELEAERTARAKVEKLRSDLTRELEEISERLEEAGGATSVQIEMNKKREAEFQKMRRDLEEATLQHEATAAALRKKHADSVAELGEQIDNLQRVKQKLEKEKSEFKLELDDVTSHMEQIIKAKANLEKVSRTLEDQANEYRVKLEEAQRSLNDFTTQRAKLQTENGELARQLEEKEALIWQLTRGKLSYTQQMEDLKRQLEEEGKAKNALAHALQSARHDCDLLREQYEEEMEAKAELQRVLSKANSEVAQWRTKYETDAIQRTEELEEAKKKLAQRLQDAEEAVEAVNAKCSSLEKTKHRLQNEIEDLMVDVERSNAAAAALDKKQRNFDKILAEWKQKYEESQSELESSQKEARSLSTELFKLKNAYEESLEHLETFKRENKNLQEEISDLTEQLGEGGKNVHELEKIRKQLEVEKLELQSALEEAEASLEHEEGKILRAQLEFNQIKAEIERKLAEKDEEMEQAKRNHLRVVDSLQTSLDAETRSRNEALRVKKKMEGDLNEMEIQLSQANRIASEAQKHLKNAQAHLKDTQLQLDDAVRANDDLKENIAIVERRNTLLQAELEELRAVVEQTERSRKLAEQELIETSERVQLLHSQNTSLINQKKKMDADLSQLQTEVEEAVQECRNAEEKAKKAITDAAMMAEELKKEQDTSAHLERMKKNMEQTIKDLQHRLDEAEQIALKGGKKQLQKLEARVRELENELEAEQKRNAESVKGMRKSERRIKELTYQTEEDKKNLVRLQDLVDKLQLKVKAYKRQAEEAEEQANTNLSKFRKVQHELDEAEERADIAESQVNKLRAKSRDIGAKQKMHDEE
UniProt P16409, 2-200 limits assumed: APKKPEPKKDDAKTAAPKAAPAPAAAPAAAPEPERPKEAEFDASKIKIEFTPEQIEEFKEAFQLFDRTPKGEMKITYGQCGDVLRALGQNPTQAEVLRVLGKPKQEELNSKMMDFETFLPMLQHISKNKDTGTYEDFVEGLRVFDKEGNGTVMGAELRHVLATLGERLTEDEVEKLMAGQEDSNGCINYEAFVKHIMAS

Key:
[1] = target: T1, myosin heavy chain and light chain 1 (Rattus norvegicus, UniProt P02563+P16409); assay: Gel shift assay, reducing/non-reducing western blot of cardiac myofibrils; type: biochemical; conditions: non-reducing; lost with 5 mM DTT
T1 construct: 1 μg of rat cardiac myofibrils treated with HNO donors or control compounds; tissue Pel Freez Biologicals; host or cells: myofibrils from frozen rat ventricles
Experimental: FIG. 4. Validation and characterizations of HNO modifications. 1 μg of rat cardiac myofibrils treated with HNO donors or control compounds were separated under reducing or nonreducing conditions and western blots probed for candidate proteins tropomyosin, actin, myosin heavy chain, myosin light chain 1 (n=4). […] Silver stained gel analysis indicated a protein band with […] gel mobility that was lost with DTT.
Gel shift assay. 10 μg of rat myofibrils/treatment were diluted to 0.5 μg/μl in HEN including 0.1% (w/v) SDS and exposed to a treatment for 20 min at 37° C. Samples were diluted to 0.1 ug/ul in 1×LSD sample buffer, treated with 0, 5 or 100 mM DTT and separated by SDS PAGE. Proteins were silver stained or transferred to nitrocellulose and immunoblotted with primary antibodies for tropomyosin sarcomeric (CH1, Sigma-Aldrich Co., St. Louis, Mo., USA), actin (AC-40, Sigma-Aldrich Co., St. Louis, Mo., USA), myosin light chain 1 (MLM527, Abcam, Cambridge, Mass., USA) or myosin heavy chain (3-48, Abcam, Cambridge, Mass., USA). For some silver stained gel bands of interest in-gel digestion was done following the protocol outlined in Shevchenko et al.. Gel slices of interest were excised from the gels cut into 1 mm^3 pieces. Silver stained gel pieces were destained in 1:1(v/v) 30 mM Potassium ferricyanide and 100 mM Sodium thiosulfate and wash three times with ddH2O. […]

[2] = cited from earlier work

SMILES	heavy-light chain heterodimer population [1]	HNO as primary hydrolysis product [2]	NO released alongside HNO [2]	nitrite released [2]
[Na+].[Na+].[O-][N+]([O-])=NO [AS, Angeli's Salt]	> 212 kDa	–	–	–
CC(=O)OC1(N=O)CCCCC1 [NCA, 1-nitrosocyclohexylacetate]	> 212 kDa	> 50%	< 0.5%	no nitrite at all
